According to the supplement of paper PMC11006884:
The list shows a part of the results, in another mix than the full data.

Sequences of proteins named here, by UniProt entry; tags and fusion partners are left off. A change or cut given only in a name is not applied to a line headed by its entry.
UniProt P46821: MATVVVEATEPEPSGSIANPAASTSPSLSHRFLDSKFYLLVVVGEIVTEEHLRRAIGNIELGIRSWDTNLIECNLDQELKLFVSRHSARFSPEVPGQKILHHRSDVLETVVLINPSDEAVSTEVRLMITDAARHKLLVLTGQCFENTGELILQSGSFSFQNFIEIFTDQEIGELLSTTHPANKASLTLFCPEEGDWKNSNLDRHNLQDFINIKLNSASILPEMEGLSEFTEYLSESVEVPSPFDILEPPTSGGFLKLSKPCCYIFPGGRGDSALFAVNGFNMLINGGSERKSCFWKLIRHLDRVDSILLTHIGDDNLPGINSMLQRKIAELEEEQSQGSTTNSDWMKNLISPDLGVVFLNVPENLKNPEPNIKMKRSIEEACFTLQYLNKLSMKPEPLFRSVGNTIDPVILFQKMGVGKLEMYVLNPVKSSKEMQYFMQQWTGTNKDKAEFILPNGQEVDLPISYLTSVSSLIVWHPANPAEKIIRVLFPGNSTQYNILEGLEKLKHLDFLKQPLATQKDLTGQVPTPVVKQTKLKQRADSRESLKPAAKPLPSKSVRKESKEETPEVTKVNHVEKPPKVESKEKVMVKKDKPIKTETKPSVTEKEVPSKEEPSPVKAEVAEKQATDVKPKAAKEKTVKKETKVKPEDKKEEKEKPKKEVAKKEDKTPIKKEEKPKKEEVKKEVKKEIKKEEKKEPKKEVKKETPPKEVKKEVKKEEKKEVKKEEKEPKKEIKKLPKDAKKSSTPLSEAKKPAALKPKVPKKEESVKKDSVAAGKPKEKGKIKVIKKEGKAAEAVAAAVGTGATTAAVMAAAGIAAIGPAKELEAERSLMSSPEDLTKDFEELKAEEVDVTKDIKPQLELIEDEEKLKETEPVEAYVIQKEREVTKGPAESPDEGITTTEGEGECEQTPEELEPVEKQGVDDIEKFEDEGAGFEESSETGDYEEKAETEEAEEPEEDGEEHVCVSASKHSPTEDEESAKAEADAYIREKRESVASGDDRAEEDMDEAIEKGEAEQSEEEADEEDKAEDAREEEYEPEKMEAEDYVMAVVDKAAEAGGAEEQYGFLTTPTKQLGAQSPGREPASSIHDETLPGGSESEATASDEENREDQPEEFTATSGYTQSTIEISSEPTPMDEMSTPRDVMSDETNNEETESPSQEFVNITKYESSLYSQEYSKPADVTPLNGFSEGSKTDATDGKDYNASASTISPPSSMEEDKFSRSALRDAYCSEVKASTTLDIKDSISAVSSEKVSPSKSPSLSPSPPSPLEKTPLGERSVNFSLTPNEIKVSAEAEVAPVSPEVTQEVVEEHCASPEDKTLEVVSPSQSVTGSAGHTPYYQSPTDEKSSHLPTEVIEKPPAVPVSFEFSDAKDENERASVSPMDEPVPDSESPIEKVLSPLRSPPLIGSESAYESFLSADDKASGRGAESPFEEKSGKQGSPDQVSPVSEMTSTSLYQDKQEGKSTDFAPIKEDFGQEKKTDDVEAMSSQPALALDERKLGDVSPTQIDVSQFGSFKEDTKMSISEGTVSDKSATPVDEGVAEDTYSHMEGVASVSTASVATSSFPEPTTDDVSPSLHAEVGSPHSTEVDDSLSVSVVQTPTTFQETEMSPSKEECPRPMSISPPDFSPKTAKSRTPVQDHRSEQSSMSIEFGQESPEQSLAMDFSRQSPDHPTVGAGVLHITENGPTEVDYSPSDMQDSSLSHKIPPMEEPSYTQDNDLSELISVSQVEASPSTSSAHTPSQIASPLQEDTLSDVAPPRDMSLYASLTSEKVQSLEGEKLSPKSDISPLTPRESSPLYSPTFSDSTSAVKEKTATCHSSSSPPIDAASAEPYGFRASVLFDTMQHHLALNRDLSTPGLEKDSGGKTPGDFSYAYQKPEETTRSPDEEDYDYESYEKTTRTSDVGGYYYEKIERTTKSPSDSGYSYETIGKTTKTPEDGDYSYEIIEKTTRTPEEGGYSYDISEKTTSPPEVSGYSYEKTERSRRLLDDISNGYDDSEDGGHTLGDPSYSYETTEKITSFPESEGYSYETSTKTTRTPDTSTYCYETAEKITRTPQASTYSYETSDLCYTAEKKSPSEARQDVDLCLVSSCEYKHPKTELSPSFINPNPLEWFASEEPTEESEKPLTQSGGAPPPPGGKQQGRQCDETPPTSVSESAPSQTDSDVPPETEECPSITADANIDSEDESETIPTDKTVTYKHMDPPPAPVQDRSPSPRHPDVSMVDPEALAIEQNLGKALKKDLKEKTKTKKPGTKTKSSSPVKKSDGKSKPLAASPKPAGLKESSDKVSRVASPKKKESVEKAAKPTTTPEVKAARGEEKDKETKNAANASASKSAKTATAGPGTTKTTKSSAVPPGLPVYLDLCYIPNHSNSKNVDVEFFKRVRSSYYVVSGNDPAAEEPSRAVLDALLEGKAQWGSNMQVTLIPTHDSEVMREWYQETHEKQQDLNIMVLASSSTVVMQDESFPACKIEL
UniProt P49674: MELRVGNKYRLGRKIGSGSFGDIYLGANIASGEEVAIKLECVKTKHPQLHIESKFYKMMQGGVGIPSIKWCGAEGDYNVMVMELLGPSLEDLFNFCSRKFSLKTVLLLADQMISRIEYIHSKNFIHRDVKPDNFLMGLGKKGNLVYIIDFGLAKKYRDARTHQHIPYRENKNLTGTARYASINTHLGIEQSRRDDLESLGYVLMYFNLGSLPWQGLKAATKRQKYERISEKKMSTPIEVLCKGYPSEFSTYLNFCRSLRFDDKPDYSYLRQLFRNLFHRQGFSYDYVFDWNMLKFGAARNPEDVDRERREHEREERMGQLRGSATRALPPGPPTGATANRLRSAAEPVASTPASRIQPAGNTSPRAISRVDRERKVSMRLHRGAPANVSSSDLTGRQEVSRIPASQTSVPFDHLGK
UniProt P51617, whole entry, looked up: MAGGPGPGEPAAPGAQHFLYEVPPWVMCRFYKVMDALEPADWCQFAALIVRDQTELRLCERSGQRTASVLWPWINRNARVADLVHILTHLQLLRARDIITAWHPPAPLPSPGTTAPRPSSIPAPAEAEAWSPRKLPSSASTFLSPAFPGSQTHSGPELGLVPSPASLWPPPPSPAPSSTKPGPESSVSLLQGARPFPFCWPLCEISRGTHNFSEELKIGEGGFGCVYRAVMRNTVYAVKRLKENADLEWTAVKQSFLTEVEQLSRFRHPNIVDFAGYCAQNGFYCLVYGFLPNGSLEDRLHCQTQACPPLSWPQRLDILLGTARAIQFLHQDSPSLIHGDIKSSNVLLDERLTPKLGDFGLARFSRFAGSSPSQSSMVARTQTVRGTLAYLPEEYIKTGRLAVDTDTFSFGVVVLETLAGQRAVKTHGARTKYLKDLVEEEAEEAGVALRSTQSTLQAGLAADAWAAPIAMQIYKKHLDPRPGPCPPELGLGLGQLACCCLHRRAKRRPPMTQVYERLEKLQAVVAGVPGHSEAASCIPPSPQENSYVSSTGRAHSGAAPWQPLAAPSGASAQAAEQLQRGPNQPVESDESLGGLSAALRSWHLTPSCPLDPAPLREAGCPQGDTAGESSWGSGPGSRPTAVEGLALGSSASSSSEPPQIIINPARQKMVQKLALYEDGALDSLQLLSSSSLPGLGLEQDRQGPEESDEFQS
UniProt P49588, whole entry, looked up: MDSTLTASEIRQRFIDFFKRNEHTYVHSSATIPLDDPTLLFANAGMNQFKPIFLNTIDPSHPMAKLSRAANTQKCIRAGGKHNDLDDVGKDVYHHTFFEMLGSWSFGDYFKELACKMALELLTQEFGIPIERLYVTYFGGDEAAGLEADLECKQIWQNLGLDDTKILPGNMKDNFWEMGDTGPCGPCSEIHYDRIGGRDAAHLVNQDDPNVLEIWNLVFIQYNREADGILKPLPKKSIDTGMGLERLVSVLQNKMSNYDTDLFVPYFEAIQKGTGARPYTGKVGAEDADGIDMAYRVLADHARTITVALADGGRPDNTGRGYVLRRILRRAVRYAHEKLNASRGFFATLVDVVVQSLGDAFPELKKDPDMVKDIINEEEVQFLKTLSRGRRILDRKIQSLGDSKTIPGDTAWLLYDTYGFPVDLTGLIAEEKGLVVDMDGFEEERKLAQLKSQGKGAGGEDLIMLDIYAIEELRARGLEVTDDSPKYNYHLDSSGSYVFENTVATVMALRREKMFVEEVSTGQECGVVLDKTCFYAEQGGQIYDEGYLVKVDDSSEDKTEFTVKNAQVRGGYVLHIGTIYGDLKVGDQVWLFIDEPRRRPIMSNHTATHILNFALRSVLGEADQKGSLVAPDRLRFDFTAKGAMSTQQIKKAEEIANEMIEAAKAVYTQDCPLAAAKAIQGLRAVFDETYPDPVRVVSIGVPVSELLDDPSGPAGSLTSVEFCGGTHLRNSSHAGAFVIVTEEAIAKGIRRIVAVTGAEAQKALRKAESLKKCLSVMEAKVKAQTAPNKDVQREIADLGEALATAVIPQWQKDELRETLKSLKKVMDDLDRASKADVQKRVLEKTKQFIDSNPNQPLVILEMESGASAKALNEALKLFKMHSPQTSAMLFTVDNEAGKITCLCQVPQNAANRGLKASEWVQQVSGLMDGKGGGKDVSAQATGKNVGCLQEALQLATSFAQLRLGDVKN
UniProt P48230: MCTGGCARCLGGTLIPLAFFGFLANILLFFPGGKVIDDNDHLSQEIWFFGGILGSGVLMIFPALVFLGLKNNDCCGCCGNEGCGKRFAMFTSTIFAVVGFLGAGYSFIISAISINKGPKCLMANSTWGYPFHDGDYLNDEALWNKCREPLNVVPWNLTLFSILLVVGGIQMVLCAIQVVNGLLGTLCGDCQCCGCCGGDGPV
UniProt P45973, whole entry, looked up: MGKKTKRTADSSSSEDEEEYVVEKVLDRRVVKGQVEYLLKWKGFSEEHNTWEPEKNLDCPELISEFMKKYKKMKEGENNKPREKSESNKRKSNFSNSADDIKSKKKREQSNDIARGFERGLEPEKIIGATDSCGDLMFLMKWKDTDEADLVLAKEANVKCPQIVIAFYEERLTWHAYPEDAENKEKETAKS
UniProt P50213: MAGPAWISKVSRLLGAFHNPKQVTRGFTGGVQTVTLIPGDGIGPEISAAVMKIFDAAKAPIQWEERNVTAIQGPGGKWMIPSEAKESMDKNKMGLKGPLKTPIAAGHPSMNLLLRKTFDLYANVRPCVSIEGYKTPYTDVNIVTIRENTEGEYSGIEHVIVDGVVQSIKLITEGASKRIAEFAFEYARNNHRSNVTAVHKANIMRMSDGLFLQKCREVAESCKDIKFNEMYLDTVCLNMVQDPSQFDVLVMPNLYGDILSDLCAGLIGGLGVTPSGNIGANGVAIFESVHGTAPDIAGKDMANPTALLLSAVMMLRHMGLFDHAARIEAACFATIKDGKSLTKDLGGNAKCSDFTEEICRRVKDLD
UniProt P49840: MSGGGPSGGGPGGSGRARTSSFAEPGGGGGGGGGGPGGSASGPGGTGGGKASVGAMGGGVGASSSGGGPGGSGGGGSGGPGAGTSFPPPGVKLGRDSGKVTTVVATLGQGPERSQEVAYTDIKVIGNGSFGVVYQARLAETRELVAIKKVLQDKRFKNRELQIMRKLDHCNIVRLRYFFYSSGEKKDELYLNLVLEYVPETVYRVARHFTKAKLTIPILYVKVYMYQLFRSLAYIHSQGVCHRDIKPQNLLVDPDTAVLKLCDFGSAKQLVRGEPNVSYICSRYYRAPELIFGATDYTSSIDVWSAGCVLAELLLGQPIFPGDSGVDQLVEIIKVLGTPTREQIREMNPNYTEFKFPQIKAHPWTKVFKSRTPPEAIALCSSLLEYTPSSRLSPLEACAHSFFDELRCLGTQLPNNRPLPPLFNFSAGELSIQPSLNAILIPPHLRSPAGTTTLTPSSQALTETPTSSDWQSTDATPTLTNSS
UniProt P49368: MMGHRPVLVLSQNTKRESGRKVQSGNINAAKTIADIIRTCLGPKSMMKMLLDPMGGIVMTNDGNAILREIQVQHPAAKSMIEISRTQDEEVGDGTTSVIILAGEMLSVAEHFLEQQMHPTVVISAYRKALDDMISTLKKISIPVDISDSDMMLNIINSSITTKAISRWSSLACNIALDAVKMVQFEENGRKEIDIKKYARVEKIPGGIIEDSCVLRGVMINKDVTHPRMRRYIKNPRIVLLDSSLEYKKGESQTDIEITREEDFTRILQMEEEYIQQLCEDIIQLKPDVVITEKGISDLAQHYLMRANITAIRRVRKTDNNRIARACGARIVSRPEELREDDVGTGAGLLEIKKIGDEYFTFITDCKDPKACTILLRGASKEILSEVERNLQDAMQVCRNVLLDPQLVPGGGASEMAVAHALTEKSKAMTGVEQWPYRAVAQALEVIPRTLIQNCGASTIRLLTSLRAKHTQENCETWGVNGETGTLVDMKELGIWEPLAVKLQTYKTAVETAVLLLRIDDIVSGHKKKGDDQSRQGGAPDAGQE
UniProt P51452: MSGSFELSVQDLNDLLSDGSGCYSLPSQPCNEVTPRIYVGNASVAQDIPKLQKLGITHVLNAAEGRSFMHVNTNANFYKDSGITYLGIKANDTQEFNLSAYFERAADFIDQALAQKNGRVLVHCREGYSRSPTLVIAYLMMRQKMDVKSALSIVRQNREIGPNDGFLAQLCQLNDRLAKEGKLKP

compound: COC(=O)C#Cc1ccccc1 [methyl 3-phenylpropiolate]; assay: log2 ratio of iodoacetamide-alkyne labeling of the cysteine site, DMSO over compound (competition); higher = stronger covalent engagement of the cysteine by the compound, active = 1 or more; conditions: 500 µM; treatment time 1 h; system: HEK293T cell lysate
How it was run: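 Electrophile (500 µM) or vehicle was added to HEK293T lysate (2 mg/mL) for 1 h at ambient temperature before iodoacetamide alkyne labelling (1 h) and click coupling to sCIP-TMT reagents. After pooling, overnight trypsin digestion at 37 °C, streptavidin enrichment and acid elution, peptides were measured by Orbitrap Eclipse LC-MS/MS with FAIMS and quantified in FragPipe. Each cysteine's log2 competition ratio compares mean control-channel with mean compound-channel reporter intensity, control over compound. Data came from duplicate channels across three replicates, excluding cysteines quantified in only one replicate.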

log2 ratio of iodoacetamide-alkyne labeling, inactive:
MAP1B C2041 (UniProt P46821) 0.488
UniProt P49674_C255 0.112
IRAK1 C43 (UniProt P51617) 0.531
MAP1B C1814 (UniProt P46821) 0.438
AARS C723 (UniProt P49588) 0.264
AARS C947 (UniProt P49588) -0.112
RANGAP1 C274 (UniProt P46060) 0.753
USP5 C195 (UniProt P45974) 0.206
QARS C556 (UniProt P47897) -0.102
IQGAP1 C1534 (UniProt P46940) -0.0904
MAP1B C190 (UniProt P46821) 0.39
UniProt P48230_C2 -0.137
CBX5 C133 (UniProt P45973) 0.17
PCYT1A C37 (UniProt P49585) 0.291
MSH2 C873 (UniProt P43246) 0.859
CTCF C268 (UniProt P49711) -0.0241
IDH3A C127 (UniProt P50213) 0.245
MECP2 C413 (UniProt P51608) 0.406
IDH2 C154 (UniProt P48735) 0.393
UniProt P49840_C398 0.241
CCT3 C372 (UniProt P49368) 0.382
DUSP3 C171 (UniProt P51452) 0.148

Pulled one by one from the list above:
log2 ratio of iodoacetamide-alkyne labeling, inactive:
AARS C723 (UniProt P49588) 0.264
USP5 C195 (UniProt P45974) 0.206
